Values quoted from earlier work as cited in US6514979B1, “Synergistic combinations of guanosine analog reverse transcriptase inhibitors and inosine monophosphate dehydrogenese inhibitors and uses therefor” (University of Maryland Biotechnology Institute, priority 1999, dated 2003).
Some entries share one result that the patent states for a list of compounds.

target: inosine monophosphate dehydrogenase (IMPDH); conditions: competitive nucleoside analog inhibitors, typical range; read-out: Ki for enzyme inhibition; cited from earlier work

| Compound | Ki [nM] |
| --- | --- |
| NC(=O)c1ncn([C@@H]2O[C@H](CO)[C@@H](O)[C@H]2O)c1O [mizoribine] | ≥ 100 |
| NC(=O)c1ncn([C@@H]2O[C@H](CO)[C@@H](O)[C@H]2O)n1 [ribavirin] | ≥ 100 |
| NC(=O)c1csc([C@@H]2O[C@H](CO)[C@@H](O)[C@H]2O)n1 [tiazofurin] | ≥ 100 |
